System: expression of pOGH (ANG N-1498/+18) in Hep G-TW7 cells stimulated by AII
Assay: Inhibition of AII-stimulated expression of pOGH (ANG N-1498/+18) in Hep G-TW7 cells, IR-hGH by RIA
Format: cell-based
Conditions: Homo sapiens, 24 h, read-out: effective dose for the inhibition of the AII-stimulated expression of pOGH (ANG N-1498/+18)
Experimental: Hep G-TW7 cells were plated at a density of 1-2×10^5 cells/well in a. 6-well plate and incubated overnight in DMEM containing 1% depleted FBS (dFBS). Then cell growth was arrested by incubation in serum-free medium for 24 hours. Subsequently, various concentrations (10^-9 to 10^-5 mol/L) of Lorsatan™, Saralasin™ and CGP 42112A™ were added to the culture medium containing 1% dFBS in the presence of 10^-9 mol/L AII and incubated for 24 hours. At the end of the incubation period, media were collected and kept at -20° C. until assay.
Cells were incubated for up to 24 hours in the presence of AII (10-9mol/L) and various concentrations of Lorsatan™ (10^-9 to 10^-5 mol/L) or Saralasin™ (10^-9 to 10^-5 mol/L) or CGP 42112A™ (10^-9 to 10^-5 mol/L). Media harvested and assayed for the level of IR-hGH.
Hep G-TW7 cells were plated at a density of 1-2×10^5 cells/well in a 6-well plate and incubated overnight in DMEM containing 1% dFBS. Then cells growth was arrested by incubation in serum-free medium for 24 hours. […] At the end of the incubation period, media were collected and kept at -20° C. until assay.
Media were harvested and assayed for the level of IR-hGH.
The radioimmunoassay kit for hGH (RIA-hGH) was a gift from NIADDK, NIH, USA. […] NIAMDD-hGH-1 (AFP-4793 B) was used for both iodination and as a hormone standard.

Question: With `CN[C@@H]1C[C@H]2O[C@@](C)([C@@H]1OC)n1c3ccccc3c3c4c(c5c6ccccc6n2c5c31)C(=O)NC4` [Staurosporine] as the molecule, how does the minimal effective concentration read?
Answer: 1e-07 µM

From US5652097A, “In vitro test to evaluate the inhibition potency of angiotensin II antagonists on angiotensinogen” (priority 1994, dated 1997)
